Source: PubChem BioAssay AID504467 (National Center for Advancing Translational Sciences (NCATS), 2011)
The whole screen tested about 330,000 compounds, of which about 7,700 (2.3%) were called active. Inconclusive results, whose numbers are uncertain, are shown with a selection of clear calls. Calls follow the shape of the dose curve; as a rule, active = well fitted inhibition curve with a large enough effect; inconclusive = small, poorly fitted or top-dose-only effect, or effect the other way; inactive = flat fitted curve, though single readings scatter. A potency beside an inconclusive call is a rough fit, not a confirmed value.
Potency is read from the fitted curve at half-maximal effect.

Assay: qHTS screen for small molecules that inhibit ELG1-dependent DNA repair in human embryonic kidney (HEK293T) cells expressing luciferase-tagged ELG1; also: nearly all actives have a fitted effect of over 55% in size
Conditions: HEK293T ELG1-luciferase reporter, luminescence, 16 h, DNA damage induced by 5-fluorouridine; series mostly up to 46.1 µM
Outline: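 In this reporter screen, reduction of luminescence relative to DMSO vehicle indicated activity. Compounds and 5-fluorouridine were added together to 2,000 cells per well, incubated for 16 hr at 37 °C, then developed with ONE-Glo.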
With `Cc1cc2cc3c(C)cc(=O)oc3c(C)c2o1` the Potency was inconclusive: 18.3 µM [activator, single point].
With `COc1ccc(S(=O)(=O)N2CCCc3ccccc32)cc1[N+](=O)[O-]` the Potency was inconclusive: 14.6 µM [inhibitor, partial curve, poor fit].
With `COc1cccc(NC(=O)c2sc3nc4n(c(=O)c3c2C)CCC4)c1` the Potency was inconclusive: 20.6 µM [activator, partial curve].
For `Cn1cccc1C(=O)NC(=O)COC(=O)C12CC3CC(CC(O)(C3)C1)C2`, the Potency was inconclusive: 7.31 µM [activator, partial curve].
For `CCCCOC(=O)CSc1nc2c(c(=O)[nH]c(=O)n2C)n1C/C=C(\C)Cl`, the Potency was inconclusive: 29.1 µM [activator, single point].
For `COC(=O)/C(C#N)=C/c1c[nH]c2ccccc12`, the Potency was inconclusive: 3.66 µM [activator, full curve].
With `COc1cc(/C=N/NC(=O)c2cccc([N+](=O)[O-])c2)cc(OC)c1O` the Potency was “inactive”.
With `O=c1cc(NS(=O)(=O)c2ccccc2)nc(SCc2c(Cl)cccc2Cl)[nH]1` the Potency was inconclusive: 23.1 µM [activator, partial curve, poor fit].
In the case of `O=S(=O)(NC1CCCCC1)c1ccc(Cl)nc1`, the Potency was “inactive”.
With `COC(=O)c1nn(-c2ccc(OC)cc2)c(=O)cc1NN` the Potency was “inactive”.
With `CCOC(=O)c1c(NC(=O)c2cccc(N3C(=O)CCC3=O)c2)sc(C)c1C` the Potency was inconclusive: 16.4 µM [inhibitor, single point].
For `CCOC(=O)C1=C(CSc2nc3ccccc3s2)NC(=O)NC1c1cc(C)ccc1C` (stereo not given), the Potency was inconclusive: 16.4 µM [inhibitor, partial curve, poor fit].
With `O=C(Nc1nnc(-c2ccc3c(c2)CCCC3)o1)c1ccccc1` the Potency was inconclusive: 20.6 µM [activator, partial curve].
For `O=S(=O)(N/N=C\c1ccc2c(c1)OCO2)c1ccccc1`, the Potency was “inactive”.
For `Cc1nc2scc(-c3cccs3)c2c(=O)n1-n1cccc1`, the Potency was “inactive”.
For `O=C(Nc1nc2nccc(-c3ccccc3)n2n1)c1ccccc1`, the Potency was inconclusive: 8.2 µM [activator, partial curve].
In the case of `C#CCOCCOCCOCCNc1nc(N2CCN(C(=O)CCCCCCCCCCNC(=O)[C@H]([C@@H](C)CC)n3cc(CCCCCN)nn3)CC2)nc(N2CCN(C(=O)CCCCCCCCCCNC(=O)[C@H](CO)n3cc(CCCCCN)nn3)CC2)n1`, the Potency was inconclusive: 31.6 µM [inhibitor, single point].
For `COc1ccccc1N(Cc1ccccc1)S(=O)(=O)c1cccc(C(=O)Nc2cc(C)ccn2)c1`, the Potency was inconclusive: 1.16 µM [activator, partial curve].
In the case of `CCc1cc(-c2[nH]ncc2-c2ccc3c(c2)OCO3)c(O)cc1O`, the Potency was inconclusive: 8.2 µM [inhibitor, partial curve].
With `O=C(Nc1ccnn1C1CCN(C(=O)CCc2ccc(F)cc2)CC1)C1CCOC1` (stereo not given) the Potency was “inactive”.
For `Cc1ccc(C(=O)NCCSCc2ccc(Cl)cc2Cl)cc1[N+](=O)[O-]`, the Potency was inconclusive: 29.1 µM [inhibitor, single point].
With `COc1ccc(N=C2C(=Nc3ccc(OC)cc3)N(c3ccc(OC)cc3)C(=S)N2c2ccccc2)cc1` the Potency was inconclusive: 20.6 µM [activator, partial curve].
With `O=C(C1CCCN(S(=O)(=O)c2ccc(Cl)cc2)C1)N(Cc1cccs1)C1CC1` (stereo not given) the Potency was inconclusive: 29.1 µM [inhibitor, single point].
For `Cc1cccnc1NC(=S)Nc1ccc(Br)cc1Cl`, the Potency was inconclusive: 13 µM [activator, partial curve].
With `O=C(CSc1nnnn1-c1ccccc1)N1N=CCC1c1ccccc1` (stereo not given) the Potency was “inactive”.
In the case of `CCN(Cc1ccccc1)c1ccc(/C=C(\C#N)c2ccccn2)cc1`, the Potency was inconclusive: 7.31 µM [activator, partial curve].
In the case of `O=C(Nc1cc(=O)[nH]c(=O)[nH]1)c1cc(Cl)ccc1Cl`, the Potency was inconclusive: 29.1 µM [activator, single point].
In the case of `Cc1nc(-c2ccc(NC(=O)Cc3ccccc3)cc2)cs1`, the Potency was inconclusive: 16.4 µM [activator, partial curve].
With `COc1ccccc1C(=O)Nc1c[nH]c(=O)[nH]c1=O` the Potency was “inactive”.
For `Cc1cc2c(c(=O)o1)C1(C(=O)N(C)c3ccccc31)C(C#N)=C(N)O2` (stereo not given), the Potency was inconclusive: 1.26 µM [activator, single point].
For `Cc1ccc(N(C(=O)Nc2ccccc2)C2=NCC(C)S2)cc1` (stereo not given), the Potency was inconclusive: 18.4 µM [activator, single point].
For `COC(=O)[C@H]1C[C@H](C(=O)O)[C@@H](C)C1(C)C`, the Potency was “inactive”.
With `COc1cc(C(CCN2CCOCC2)c2c(OC)cc(OC)c3c(-c4ccccc4)cc(=O)oc23)cc(OC)c1OC` (stereo not given) the Potency was inconclusive: 23.1 µM [inhibitor, partial curve, poor fit].
For `O=C(NCc1ccccc1Cl)c1cc(C(=O)C2CC2)c[nH]1`, the Potency was inconclusive: 3.66 µM [inhibitor, partial curve, poor fit].
In the case of `CCN(CC)S(=O)(=O)c1ccc(C)c(NC(=O)CNc2cccc(S(=O)(=O)N3CCOCC3)c2)c1`, the Potency was inconclusive: 25.9 µM [inhibitor, single point].
With `CCCCNC(=O)c1sc(=S)n2c1[nH]c(=O)c1ccccc12` the Potency was inconclusive: 16.4 µM [inhibitor, single point].
In the case of `Cc1ccc(N(Cc2cc3ccc(C)cc3[nH]c2=O)S(=O)(=O)c2ccccc2)cc1`, the Potency was “inactive”.
With `CCOc1ccccc1N(C)C(=O)c1cc2c(=O)n(CC)c3ccccc3c2s1` the Potency was inconclusive: 16.4 µM [inhibitor, single point].
With `COC(=O)c1cc(NCc2cccs2)ccc1N1CCOCC1` the Potency was inconclusive: 29.1 µM [activator, single point].
With `CCN(C[C@H]1N[C@@](Cc2ccccc2)(C(=O)OC)[C@H]2C(=O)N(Cc3ccccc3)C(=O)[C@@H]12)C(=O)c1ccc(F)cc1` the Potency was inconclusive: 23.1 µM [inhibitor, partial curve, poor fit].
